Source: PMC8179140
No constants are given. Whether binding was seen depends on the method and setting. In cells and extracts the contact can be indirect. Some results given as binding are weak or reduced against the parent protein; the word gives no strength.

Sequences of proteins named here, by UniProt entry; tags and fusion partners are left off.
UniProt O95452: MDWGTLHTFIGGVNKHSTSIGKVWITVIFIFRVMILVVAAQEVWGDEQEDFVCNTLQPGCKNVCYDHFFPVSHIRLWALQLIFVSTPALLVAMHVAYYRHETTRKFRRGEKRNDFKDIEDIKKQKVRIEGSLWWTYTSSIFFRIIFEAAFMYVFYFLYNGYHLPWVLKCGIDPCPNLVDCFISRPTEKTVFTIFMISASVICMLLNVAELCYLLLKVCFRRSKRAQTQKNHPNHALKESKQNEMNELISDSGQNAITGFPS

Molecular target: Connexin30 (UniProt O95452)
Assay: co-IP; TMEM43 WT or p.(Arg372Ter) coexpressed with Cx26 or Cx30 in HEK293T cells (heterologous expression system)

B1: TMEM43 wild-type (WT) (protein, UniProt Q9BTV4 1-400)
chain: MAANYSSTSTRREHVKVKTSSQPGFLERLSETSGGMFVGLMAFLLSFYLIFTNEGRALKTATSLAEGLSLVVSPDSIHSVAPENEGRLVHIIGALRTSKLLSDPNYGVHLPAVKLRRHVEMYQWVETEESREYTEDGQVKKETRYSYNTEWRSEIINSKNFDREIGHKNPSAMAVESFMATAPFVQIGRFFLSSGLIDKVDNFKSLSLSKLEDPHVDIIRRGDFFYHSENPKYPEVGDLRVSFSYAGLSGDDPDLGPAHVVTVIARQRGDQLVPFSTKSGDTLLLLHHGDFSAEEVFHRELRSNSMKTWGLRAAGWMAMFMGLNLMTRILYTLVDWFPVFRDLVNIGLKAFAFCVATSLTLLTVAAGWLFYRPLWALLIAGLALVPILVARTRVPAKKLE
  binding: binds

B2: TMEM43-p.(Arg372Ter) (domain or fragment, UniProt Q9BTV4 1-371)
chain: MAANYSSTSTRREHVKVKTSSQPGFLERLSETSGGMFVGLMAFLLSFYLIFTNEGRALKTATSLAEGLSLVVSPDSIHSVAPENEGRLVHIIGALRTSKLLSDPNYGVHLPAVKLRRHVEMYQWVETEESREYTEDGQVKKETRYSYNTEWRSEIINSKNFDREIGHKNPSAMAVESFMATAPFVQIGRFFLSSGLIDKVDNFKSLSLSKLEDPHVDIIRRGDFFYHSENPKYPEVGDLRVSFSYAGLSGDDPDLGPAHVVTVIARQRGDQLVPFSTKSGDTLLLLHHGDFSAEEVFHRELRSNSMKTWGLRAAGWMAMFMGLNLMTRILYTLVDWFPVFRDLVNIGLKAFAFCVATSLTLLTVAAGWLFY
  binding: binds
